# From the supplement of paper PMC3334620
# In all, about 33,000 sequences were measured (“E-score (-0.5 to 0.5)”: median about -8e-05, highest 2% from about 0.23 on). The list shows a part of the results.
# Target: T1, Nrg2 (UniProt P38082)
# T1 sequence: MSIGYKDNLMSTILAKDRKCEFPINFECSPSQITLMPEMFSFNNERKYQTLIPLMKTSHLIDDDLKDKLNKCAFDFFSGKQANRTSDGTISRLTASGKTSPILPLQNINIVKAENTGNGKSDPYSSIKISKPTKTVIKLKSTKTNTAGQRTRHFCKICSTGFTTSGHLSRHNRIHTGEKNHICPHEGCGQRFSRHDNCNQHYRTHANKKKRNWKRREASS
# Assay: PBM E-score (8-mer binding enrichment) (E-score (-0.5 to 0.5)); higher = stronger / more preferred TF binding
# Conditions: protein concentration: 100 nM; construct: GST-full length
# In short: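 PURExpress in vitro transcription/translation supplied GST-tagged yeast transcription factors, either full-length or DNA-binding domain. Applied at about 100-200 nM to universal all-10-mer Agilent arrays double-stranded by primer extension, the bound protein was detected with fluorescent anti-GST. E-scores, modified Wilcoxon-Mann-Whitney statistics, were given by the Universal PBM Analysis Suite to ungapped eight-base words pooled with their reverse complements after masliner normalisation.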
row,Sequence,PBM E-score
1,ACATAGGA,-0.154
2,ACTAGAGC,-0.0404
3,CAGCCGCC,-0.111
4,CAAGAGTA,0.0414
5,CCGACTCA,-0.0312
6,AGTTTGTA,0.0996
7,CGATCGGA,-0.114
8,GAGACCAC,-0.0605
9,AGGTTGAT,-0.098
10,ATACCAGC,0.0746
11,ATATCGAC,0.255
12,CGTATTCA,0.103
13,CGATTACG,-0.0644
14,GACCTACC,-0.0253
15,ATTTGAAG,-0.0398
16,CGTGACAC,0.0236
17,CGCGACTC,-0.0153
18,TATAGAGA,-0.181
19,CCATTTCA,-0.00809
20,AGCAGATG,-0.062
21,GCAACGAC,-0.153
22,CTCATGTA,0.0515
23,AATCGAAA,0.0902
24,AAAGCGGG,-0.166
25,AAATGAAG,0.0984

row,Sequence,PBM E-score
1,ACAAACCA,0.061
2,ACTGCTGA,-0.145
3,AACGCGCA,0.0385
4,AGATCAAA,0.0337
5,GCCATCTA,-0.016
6,CCTGTAGA,0.125
7,AGAATAAG,0.113
8,ATACCCTG,0.295
9,ACTCCACG,-0.152
10,ATAATAAC,0.177
11,CTGAGTAA,0.124
12,CTAAGCCA,-0.213
13,AAAAAATT,0.0948
14,AGTCCCAG,-0.0206
15,GGGCCGCA,-0.0119
16,CCGTTAAC,-0.00134
17,CTCCTTGA,-0.175
18,AGTTGGAC,0.141
19,ACGAGTAT,0.0482
20,CACCAGGG,-0.0175
21,CATGTTGG,-0.0788
22,GGCAATCA,0.0621
23,ACCAAGCT,0.162
24,AAACGGAA,0.139
25,GCGGAGGA,-0.159

row,Sequence,PBM E-score
1,CCTATGGA,0.00679
2,CAACTAAC,0.213
3,CCAGACGC,-0.0802
4,ACGCGTGG,-0.0608
5,CCTGGTGC,-0.0298
6,TGCCCAAA,-0.166
7,AAGGTGGG,-0.145
8,AACCTAAC,0.0551
9,GGCATTTA,-0.00361
10,CCAGATAA,0.0757
11,AAGTGCCT,-0.258
12,ACCCTGCG,0.254
13,ATGTGTAC,-0.0781
14,ATGAGCTG,0.0454
15,AGCACTAC,-0.0695
16,CAAGCAGA,0.06
17,ATAGCGCC,-0.0454
18,ATTCGCCC,0.0708
19,ATTAGCTA,0.186
20,CAACCGGC,0.0524
21,AGGCTTTG,-0.058
22,CCGTGACA,-0.005
23,CGGGTGGC,-0.332
24,GATCTGTA,0.0978
25,GTATCTGA,-0.0255

row,Sequence,PBM E-score
1,AGGTCATG,-0.07
2,AGGTCAGA,-0.00746
3,TTAGTCAA,-0.111
4,ATGCTCGG,0.117
5,CTCCCGGC,-0.0972
6,AAGTGGAT,-0.15
7,CGTTGTCA,0.128
8,AAACGTCT,5e-05
9,CCGAGGCC,-0.138
10,ATACTTCC,0.208
11,CAACTGTC,-0.0271
12,ACGTGGGG,0.0377
13,ATACGAGA,0.0118
14,GAATACTC,0.00141
15,GACTGGGC,-0.267
16,GTCGATGA,0.00313
17,CGATCTGC,-0.0778
18,GCGAGGTA,-0.0448
19,CGTTGAAG,-0.18
20,TACGTGGA,-0.0974
21,CCTTGTCC,0.0636
22,AGTCAGCA,-0.0526
23,ACAGGGGA,-0.00166
24,AGCTTAAT,0.196
25,CTCTGCTC,-0.0804

# Reprinted from the results shown for reference:
row,Sequence,PBM E-score
9,CCGAGGCC,-0.138
10,ATACTTCC,0.208
11,CAACTGTC,-0.0271
12,ACGTGGGG,0.0377
13,ATACGAGA,0.0118

# In a second layout: results already given.
row | Sequence | PBM E-score
16 | GTCGATGA | 0.00313
17 | CGATCTGC | -0.0778
18 | GCGAGGTA | -0.0448

# (next part)

row,Sequence,PBM E-score
1,CCTCTAGA,-0.0463
2,GCGAGTAC,0.115
3,ATACTTGC,0.0189
4,GGACCACA,0.114
5,CGTTTTAG,-0.0848
6,ACGAAGTA,-0.0054
7,GCTCAGGA,-0.078
8,AAAGTGTT,0.0175
9,ACATCGCT,-0.0194
10,CGGCAAAC,0.106
11,GGACTGTA,-0.113
12,ACTCGGGG,-0.112
13,AGGTTCCA,-0.098
14,AGGCAGAT,0.0547
15,CCTCCAGA,0.0237
16,AATGCGGT,-0.117
17,CATCCCTC,0.0425
18,ATCATTGG,-0.0111
19,GGAGTCCA,-0.142
20,TAATTAAA,-0.0298
21,TAAATGCA,0.275
22,AGTCAGAG,-0.0706
23,TAATCGCA,0.179
24,AGCGTTGC,0.101
25,AAGAGAAG,-0.0556

row,Sequence,PBM E-score
1,AGTGTTGC,0.0975
2,CAACGGCG,0.0207
3,TAGAACGA,-0.0162
4,ACTCACCC,0.0888
5,ACTCCGCC,-0.0663
6,ACGACAGG,0.0639
7,AATATGTA,0.106
8,AGGTTCGC,-0.254
9,CAAGTGAA,-0.0132
10,TGAACGAA,0.0651
11,ATACACCC,0.0186
12,AAGCTTAC,-0.0311
13,TCGGTGAA,-0.0764
14,TAACATGA,0.0672
15,GAGGGAGA,-0.0868
16,CGCCCTGC,0.0776
17,AAAACCTC,0.168
18,CAGTGCTC,-0.122
19,ATTAAGCA,-0.00766
20,ACTGTGCA,0.032
21,TGAGGCCA,0.0312
22,CCTTTTTA,-0.0656
23,CGAGGTTA,-0.0225
24,CGTAAATC,-0.0787
25,CATTGGAC,-0.0127

row,Sequence,PBM E-score
1,AGCCTACG,0.0365
2,AAGCGTAC,-0.176
3,AATCTATA,0.0713
4,ATAGGATG,0.204
5,AGCGAGGC,-0.0817
6,CGGGGTGA,0.0813
7,AGTCCGCC,-0.163
8,CACGTACA,-0.151
9,ATAGTAAG,-0.0266
10,GACTTCGA,-0.106
11,CAGCTTCG,0.0387
12,GCGAGTTA,0.162
13,GATTTAGA,-0.0272
14,CGCAACCG,-0.00904
15,AAGTATTA,0.129
16,GCTCAGCA,-0.133
17,TAGTCCGA,-0.0335
18,GACCAAAC,0.0764
19,ACACCCGC,0.224
20,AATAGGTG,-0.0127
21,ACCCCTAC,0.00018
22,AAAAACAT,0.0946
